Results on 1 substance are retold here after publication PMC12152837, “Semaglutide Aggregates into Oligomeric Micelles and Short Fibrils in Aqueous Solution” (Biomacromolecules, 2025).

The data set is described as follows: Circular dichroism, α-helix content. It counts as physicochemical. The conditions noted are these: for α-helix content: from [Θ]222; for α-helix fraction f a: from [θ]222(obs) versus theoretical.

In the case of Semaglutide, the α-helix content was determined as 4.2% (40-day aged 1 wt % solution in water) and 2.7% (fresh 1 wt % solution in water). In addition, the “α-helix fraction f a” value (40-day aged sample) was 0.042 and the “α-helix fraction f a” value (fresh sample) came to 0.027.
